Results deposited as PubChem BioAssay AID1259254 (NCATS, 2017).

Aim: 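Genome-wide screen for genes that prevent DNA re-replication in cancer cells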 (primary screen)
Cells: human HCT116 colorectal cancer cells
Reagent: single siRNA against human genes
Duration: 3 days
Read-out: 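Imaged Hoechst DNA stain sorts each cell into a cycle phase by DNA amount; per plate, G2 fraction set to 0% for non-targeting and 100% for GMNN siRNA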
Direction: G2 robust z-score: higher = more G2 cells, more excess DNA replication
Hit rule: 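An siRNA counts as active if its G2 robust z-score lies at least 5 MADs above the screen median; here such calls match roughly 38% of GMNN control or more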
This is one part, drawn at random, of about 59,000 deposited reagents. Of all reagents, about 1,550 (2.6%) were called active. 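G2 share is only a proxy for re-replication; each gene was hit by three separate siRNAs, and active genes were retested.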 The numbers tell different reagents against one gene apart. Not all columns of the deposit are shown. Reagent sequences are not shown. The record does not give: the amount of reagent.

For ULK1 (unc-51 like autophagy activating kinase 1) #1, the values are G2 robust z-score -0.664; inactive. ULK1 (unc-51 like autophagy activating kinase 1) #2 scored G2 robust z-score 1.35; inactive. ULK1 (unc-51 like autophagy activating kinase 1) #3 scored G2 robust z-score -1.1; inactive. SNAP91 (synaptosome associated protein 91) #1 scored G2 robust z-score -0.477; inactive. Silencing of SNAP91 (synaptosome associated protein 91) #2 came out at: G2 robust z-score 1.98; inactive. With knock-down of SNAP91 (synaptosome associated protein 91) #3, the screen gave G2 robust z-score -0.906; inactive.

Depletion of CACNG4 (calcium voltage-gated channel auxiliary subunit gamma 4) #1 gave: G2 robust z-score -0.415; inactive. Against CACNG4 (calcium voltage-gated channel auxiliary subunit gamma 4) #2, the entry reads G2 robust z-score 4.56; inactive. Silencing of CACNG4 (calcium voltage-gated channel auxiliary subunit gamma 4) #3 gave: G2 robust z-score 2.22; inactive. For OAZ3 (ornithine decarboxylase antizyme 3) #1, the entry reads G2 robust z-score -1.02; inactive. OAZ3 (ornithine decarboxylase antizyme 3) #2 gave G2 robust z-score 0.29; inactive. Silencing of OAZ3 (ornithine decarboxylase antizyme 3) #3 came out at: G2 robust z-score -0.415; inactive.

For CD7 (CD7 molecule) #1 the deposit lists G2 robust z-score -0.605; inactive. Against CD7 (CD7 molecule) #2 the deposit lists G2 robust z-score -1.07; inactive. CD7 (CD7 molecule) #3 showed G2 robust z-score 0.465; inactive. Depletion of HORMAD2 (HORMA domain containing 2) #1 came out at: G2 robust z-score -1.41; inactive. Against HORMAD2 (HORMA domain containing 2) #2, the entry reads G2 robust z-score 1.86; inactive. After knock-down of HORMAD2 (HORMA domain containing 2) #3, the screen gave G2 robust z-score 4.62; inactive.

Knock-down of PCID2 (PCI domain containing 2) #1 came out at: G2 robust z-score -0.138; inactive. Against PCID2 (PCI domain containing 2) #2 the deposit lists G2 robust z-score 0.247; inactive. Against PCID2 (PCI domain containing 2) #3, the values are G2 robust z-score 0.0156; inactive. Depletion of MIR3171HG (MIR3171 host gene) #1 resulted in: G2 robust z-score 0.628; inactive. Against MIR3171HG (MIR3171 host gene) #2 the deposit lists G2 robust z-score -0.302; inactive. For MIR3171HG (MIR3171 host gene) #3 the deposit lists G2 robust z-score 0.447; inactive.

Individual results from the list:
OAZ3 (ornithine decarboxylase antizyme 3) #3, Outcome: inactive
CACNG4 (calcium voltage-gated channel auxiliary subunit gamma 4) #2, Outcome = inactive
MIR3171HG (MIR3171 host gene) #2, Outcome: inactive
